# Reference: patent publication US20110151497A1, “METABOLOMIC PROFILING OF PROSTATE CANCER” (THE REGENTS OF THE UNIVERSITY OF MICHIGAN, priority 2009, published 2011)
# Assays:
# [1] = Metabolomic profiling of urine (GC-MS, UHPLC-MS): less aggressive (GS major 3) vs more aggressive (GS major 4) prostate cancer; parameters: species or system human; conditions: GS major 4 (N=13) vs GS major 3 (N=45)
# [2] = GC-MS quantification of multiple metabolites in biopsy-positive and biopsy-negative urine sediments; parameters: species or system human; conditions: alanine as internal control
# [3] = Metabolomic profiling of urine (GC-MS, UHPLC-MS): prostate cancer vs biopsy-negative controls; parameters: species or system human
# [4] = tested on: breast cancer cell lines (MCF7, MDA-MB-231, T470, SKBR3) vs MCF 10A; test: GC-MS validation of polyamines in breast cell lines; format: cell-based
# [5] = GC-MS (SIM) quantification of polyamines in prostate tissues; parameters: species or system human; conditions: normalized to tissue weight
# [6] = sarcosine and N-acetyl tyrosine in combination, urine
# [7] = two markers in combination, assuming 30% prevalence of cancer in a PSA positive population
molecule,measurement,setting,value
OC[C@H]1O[C@@H](O[C@H]2[C@H](O)[C@@H](O)C(O)O[C@@H]2CO)[C@H](O)[C@@H](O)[C@H]1O (stereo partly shown) [lactose],% Change in Aggressive PCA,[1],108.8%
NCC(=O)O [glycine],metabolite/alanine ratio of biopsy-positive vs biopsy-negative urine sediments,[2],higher levels
CC(O)C(=O)O (stereo not shown) [lactate],% Change in Aggressive PCA,[1],−29.29%
"C/C(=C\C(=O)O)C(=O)O [mesaconate (methylfumarate), mesaconate]",% Change in Aggressive PCA,[1],−48.02%
dehydroisoandrosterone sulfate [dehydroisoandrosterone sulfate (DHEA-S)],% change in PCA,"[3]; urine, level in prostate cancer (59) vs biopsy-negative control (51) individuals",162.9464%
O=C(O)[C@H](O)[C@@H](O)[C@H](O)[C@H](O)CO [gluconate],% Change in Aggressive PCA,[1],135.4%
NCCCCN [putrescine],levels in invasive breast cancer cell lines compared to normal cell line (MCF 10A),[4],elevated levels
same,levels in benign prostate tissues compared to localized and metastatic prostate cancer tissues,[5],elevated levels
Cn1c(=O)c2c(ncn2C)n(C)c1=O [caffeine],% Change in Aggressive PCA,[1],−81.72%
O=C(O)/C=C/C(=O)O [fumarate],% Change in Aggressive PCA,[1],−27.16%
NCCCNCCCCNCCCN [spermine],levels in invasive breast cancer cell lines compared to normal cell line (MCF 10A),[4],elevated levels
same,levels in benign prostate tissues compared to localized and metastatic prostate cancer tissues,[5],elevated levels
CNCC(=O)O [sarcosine],sensitivity of cancer diagnosis,[3]; [6],83%
same,specificity of cancer diagnosis,[3]; [6],49%
same,Negative Predictive Value (NPV),[3]; [7],87%
same,Positive Predictive Value (PPV),[3]; [7],41%
same,metabolite/alanine ratio of biopsy-positive vs biopsy-negative urine sediments,[2],higher levels
CSCC[C@H](N)C(=O)O [methionine],metabolite/alanine ratio of biopsy-positive vs biopsy-negative urine sediments,[2],no change
NCCCCNCCCN [spermidine],levels in invasive breast cancer cell lines compared to normal cell line (MCF 10A),[4],elevated levels
same,levels in benign prostate tissues compared to localized and metastatic prostate cancer tissues,[5],elevated levels
N[C@@H](CCC(=O)O)C(=O)O [glutamic acid],metabolite/alanine ratio of biopsy-positive vs biopsy-negative urine sediments,[2],higher levels
"O=C(O)[C@@H](O)[C@@H](O)[C@H](O)[C@@H](O)C(=O)O [glucarate (saccharate), glucarate]",% Change in Aggressive PCA,[1],78.74%
